Reference: patent US7442373B2 (priority 2003, dated 2008)

Columns and labels:
[1] = test system: Bacillus anthracis Ames; set-up: species or system Swiss-Webster mice; conditions: mouse, in vivo
[2] = test system: Bacillus anthracis spores; conditions: Hartley, guinea pig, in vivo

SMILES: O=C(O)c1cn(C2CC2)c2cc(N3CCNCC3)c(F)cc2c1=O [ciprofloxacin]
- animals protected [1]: 60%
- dose at which drug toxicity was noted [2]: 5.4 mg/day
